The text below walks through data of PMC11077049.

The chains behind the UniProt entries cited, without tags or fusion partners. Residues count along the entry.
UniProt Q07955, 199-248: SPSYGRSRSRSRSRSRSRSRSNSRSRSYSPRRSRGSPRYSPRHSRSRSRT
UniProt Q07955, whole entry: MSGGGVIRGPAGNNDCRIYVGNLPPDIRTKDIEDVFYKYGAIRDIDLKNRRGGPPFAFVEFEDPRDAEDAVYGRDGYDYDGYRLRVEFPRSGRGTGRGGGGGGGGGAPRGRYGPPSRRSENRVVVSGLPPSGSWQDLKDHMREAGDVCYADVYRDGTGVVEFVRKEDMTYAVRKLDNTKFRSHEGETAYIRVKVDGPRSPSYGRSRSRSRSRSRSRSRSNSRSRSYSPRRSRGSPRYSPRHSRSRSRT

For series [1], the target named is SRSF1 RS (human) (UniProt Q07955). Put plainly: FP. The note with it: 37 C 30 min then 25 C 10 min, 21-mers: 25 mM KCl, 0.25 M Arg/Glu, 20 mM Tris-HCl pH 7.5, 0.1 mM EDTA, 0.1 mM TCEP, 0.02% Tween 20, 8-mers: 35 mM K3PO4, recombinant protein, residues 199-248, label: 5' fluorescein; for binding result: 70 mM K3PO4, 10 nM RNA.
The target is the same in series [2]. As to the kind of experiment: FRET unfolding. The note with it: recombinant protein; residues 199-248; label: 5' Cy5, 3' Cy3.
The target of series [3] is SRSF1 full-length (human) (UniProt Q07955). As to the kind of experiment: FRET unfolding. The note with it: recombinant protein; residues 1-248; label: 5' Cy5, 3' Cy3.

For at least one entry, the source does not settle the construct or the ends of the probe. For some assays here: A weaker result is weaker than the reference pair of the same experiment. At least one verdict rests on a figure or table, not on a statement of the authors.

As usually defined, the Kd is the constant that tells how readily two partners part at equilibrium. With CCCCCCCC [8C], in the series with SRSF1 RS (human) [1] (8-mer buffer, 35 mM K3PO4, 10 nM RNA), the Kd was found to be 1220 nM.

CUCUCUCU [4CU]: the binding result with SRSF1 RS (human) [1] is listed as “binds more weakly”.

Take GAGAGAGA [4GA]: the binding result with SRSF1 RS (human) [1] is “binds more weakly”.

On to “UGGGGGCUGGGCGGGGACCGGGU [Cy3-Cy5 ARPC2 GQ]”, for which the binding result (with SRSF1 RS (human) [2]; in series [3]) was “binds” in each case.
